This is a selection; strong and weak results do not stand in their true shares. At the low end of the ranking the order means little.

The assay has as its target SPI1 (UniProt P17947). Briefly: DAPPL (digital affinity profiling via proximity ligation, sequencing). To be noted: 10 mM Tris-HCl pH 7.5, 50 mM NaCl, 1 mM DTT, 4% glycerol, room temperature, 30 min; GST-TFs on glutathione beads, 16-mer random dsDNA library, 0.1% …; high values mean tight binding; double strand, one strand shown; scale: fold enrichment (6-mer frequency, TF over GST control).
In turn, CTATTG had a binding signal of 1.26.

For the sequence CACGCA, the binding signal came to 0.944.

GGATAC displayed a binding signal of 0.94.

Regarding AGGTTT, the binding signal came out at 1.06.

Consider TTGGTC, for which the binding signal was 1.08.

Sequence GCCGCA showed a binding signal of 0.943.

ACGCCA gave a binding signal of 0.946.

As for TCATCG, the binding signal came out at 0.965.

As to CGGCCC, the binding signal was found to be 0.97.

TAAGCC showed a binding signal of 1.08.

Consider GGTAAT, for which the binding signal is 1.04.

TAGCGA displayed a binding signal of 0.981.

TCTCAG returned a binding signal of 1.55.

Take AATTAT: the binding signal came to 1.18.

Consider TGTACA, for which the binding signal was determined as 1.28.

For the sequence ACGATT, the binding signal turned out to be 1.31.

For GTTTTA, the binding signal was 1.12.

As to CGCGTA, the binding signal is 0.951.

Turning to GCTAGC, the binding signal turned out to be 1.29.

For CGAATT, the binding signal turned out to be 1.22.

ACAGCC came in with a binding signal of 0.997.

Consider TTGAAA, for which the binding signal was determined as 1.18.

As to GCGCCC, the binding signal was found to be 0.997.

CATTAG had a binding signal of 0.859.

Take CACCTC: the binding signal worked out at 0.999.

AGTACG yielded a binding signal of 1.02.

AAAGCC showed a binding signal of 0.946.

For AGGCCC, the binding signal was determined as 0.93.

TCCAGT yielded a binding signal of 0.688.

Sequence AGATGT showed a binding signal of 0.858.

On to CGAGAA, for which the binding signal was found to be 0.817.

In the case of ACTTGA, the binding signal was determined as 0.981.

In the case of GGTGTT, the binding signal turned out to be 0.97.

The sequence AAGATC displayed a binding signal of 1.04.

In turn, CTCATC registered a binding signal of 1.21.

Regarding GCTTCT, the binding signal is 1.43.

In turn, GTTTGC returned a binding signal of 1.03.

For the sequence CTTCAC, the binding signal was found to be 1.37.

Turning to GAACTG, the binding signal was 1.2.

The values above are taken from paper PMC7862700.
